The target in the assay is human factor H (human) (UniProt P08603). Nature of the assay: competition in plate binding assay; bPTX3 varied against coated NMB1870 or NMB0667 (FIGS. 4 and 5).

Protein sequences, listed by entry. Tags and fused reporters are not part of them. Residues count along the entry.
UniProt P08603, residues 19-1231: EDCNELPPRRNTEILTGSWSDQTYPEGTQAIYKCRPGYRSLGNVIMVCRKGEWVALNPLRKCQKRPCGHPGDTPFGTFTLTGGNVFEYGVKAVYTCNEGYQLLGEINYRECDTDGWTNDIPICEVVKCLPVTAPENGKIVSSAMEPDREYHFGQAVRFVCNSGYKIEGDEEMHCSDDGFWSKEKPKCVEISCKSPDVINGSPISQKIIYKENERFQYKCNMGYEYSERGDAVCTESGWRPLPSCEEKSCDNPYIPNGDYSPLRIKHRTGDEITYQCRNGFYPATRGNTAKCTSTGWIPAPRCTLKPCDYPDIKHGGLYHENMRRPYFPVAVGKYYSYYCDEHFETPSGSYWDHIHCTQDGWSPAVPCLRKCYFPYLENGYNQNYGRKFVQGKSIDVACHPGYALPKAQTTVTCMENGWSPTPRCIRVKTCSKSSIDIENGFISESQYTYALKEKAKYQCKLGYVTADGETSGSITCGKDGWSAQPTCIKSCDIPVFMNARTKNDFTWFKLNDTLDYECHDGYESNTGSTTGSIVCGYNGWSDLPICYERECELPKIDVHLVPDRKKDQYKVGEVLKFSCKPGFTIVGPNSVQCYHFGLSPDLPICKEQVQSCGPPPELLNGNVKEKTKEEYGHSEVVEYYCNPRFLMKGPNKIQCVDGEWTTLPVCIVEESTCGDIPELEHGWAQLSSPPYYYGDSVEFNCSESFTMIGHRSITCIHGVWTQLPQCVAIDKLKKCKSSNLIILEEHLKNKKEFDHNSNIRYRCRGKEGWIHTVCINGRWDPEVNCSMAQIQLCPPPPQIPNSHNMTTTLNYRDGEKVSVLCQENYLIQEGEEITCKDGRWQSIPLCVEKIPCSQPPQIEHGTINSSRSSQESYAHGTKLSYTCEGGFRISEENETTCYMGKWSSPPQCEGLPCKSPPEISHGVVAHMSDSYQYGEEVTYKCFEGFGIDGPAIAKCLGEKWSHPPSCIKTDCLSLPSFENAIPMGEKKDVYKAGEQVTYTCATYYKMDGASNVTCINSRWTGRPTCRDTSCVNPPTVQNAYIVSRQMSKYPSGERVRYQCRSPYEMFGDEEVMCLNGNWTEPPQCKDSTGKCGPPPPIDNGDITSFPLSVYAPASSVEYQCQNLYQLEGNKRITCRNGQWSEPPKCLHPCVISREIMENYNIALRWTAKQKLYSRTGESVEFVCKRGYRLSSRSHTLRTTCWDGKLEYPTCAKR
UniProt P26022, residues 18-381: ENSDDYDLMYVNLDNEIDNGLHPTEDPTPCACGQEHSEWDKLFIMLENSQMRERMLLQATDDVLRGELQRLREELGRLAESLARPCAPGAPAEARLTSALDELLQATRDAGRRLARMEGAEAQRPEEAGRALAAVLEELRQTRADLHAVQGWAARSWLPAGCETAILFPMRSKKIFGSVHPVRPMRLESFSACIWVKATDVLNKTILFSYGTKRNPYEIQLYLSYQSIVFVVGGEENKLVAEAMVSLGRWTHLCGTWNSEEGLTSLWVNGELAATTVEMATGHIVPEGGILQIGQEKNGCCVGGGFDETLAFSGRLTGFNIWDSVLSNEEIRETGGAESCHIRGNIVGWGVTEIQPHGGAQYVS

The values that follow come from patent US20110300171A1.

No constants are given. Whether binding was seen depends on the method and setting. Some entries that bind do so weakly or less than the wild type.

For “bPTX3 (from UniProt P26022 18-381) (ligand)”, the binding result is listed as “binds”.
